These are yes or no findings as the source states them, for the method shown. Binding seen in cells or lysates may run through a third protein. Some binding calls cover weakened binding; strength is not graded here.

This is an account of results in patent US20180051253A1.

The target of test [1] is T1, Nuclear Respiratory Factor 1 (NRF1) (UniProt Q16656).
T1 sequence (looked up): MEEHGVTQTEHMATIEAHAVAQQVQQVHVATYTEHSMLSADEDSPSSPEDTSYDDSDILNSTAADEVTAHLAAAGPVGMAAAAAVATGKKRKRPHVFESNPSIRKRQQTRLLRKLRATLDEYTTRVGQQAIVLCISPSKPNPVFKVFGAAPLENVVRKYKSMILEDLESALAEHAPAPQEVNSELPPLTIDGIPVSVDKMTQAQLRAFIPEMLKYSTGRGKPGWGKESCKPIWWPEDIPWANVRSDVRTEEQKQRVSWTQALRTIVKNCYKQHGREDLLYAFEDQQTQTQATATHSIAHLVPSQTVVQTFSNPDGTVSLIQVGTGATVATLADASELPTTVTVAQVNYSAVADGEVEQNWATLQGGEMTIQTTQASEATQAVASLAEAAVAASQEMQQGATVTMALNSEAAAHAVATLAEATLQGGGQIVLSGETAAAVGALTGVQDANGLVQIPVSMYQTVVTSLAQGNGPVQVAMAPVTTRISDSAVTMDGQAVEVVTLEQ
The experiment in a line: co-immunoprecipitation from 293T cells.

Test [2] concerns the target T1, Nuclear Respiratory Factor 1 (NRF1). Nature of the test: co-immunoprecipitation from 293T cells (SIRT7 IP, Protein A/G beads).

In the case of “Flag-tagged SIRT7 (from UniProt Q9NRC8 1-400) (enzyme)”, the binding entry in test [1] is on record as “binds”.

B1: endogenous SIRT7 (protein)
chain: MAAGGLSRSERKAAERVRRLREEQQRERLRQVSRILRKAAAERSAEEGRLLAESADLVTELQGRSRRREGLKRRQEEVCDDPEELRGKVRELASAVRNAKYLVVYTGAGISTAASIPDYRGPNGVWTLLQKGRSVSAADLSEAEPTLTHMSITRLHEQKLVQHVVSQNCDGLHLRSGLPRTAISELHGNMYIEVCTSCVPNREYVRVFDVTERTALHRHQTGRTCHKCGTQLRDTIVHFGERGTLGQPLNWEAATEAASRADTILCLGSSLKVLKKYPRLWCMTKPPSRRPKLYIVNLQWTPKDDWAALKLHGKCDDVMRLLMAELGLEIPAYSRWQDPIFSLATPLRAGEEGSHSRKSLCRSREEAPPGDRGAPLSSAPILGGWFGRGCTKRTKRKKVT
For B1, the binding result in test [1] and in test [2] was “binds” in each case.
